In article PMC10238197, “Deafness‐Associated ADGRV1 Mutation Impairs USH2A Stability through Improper Phosphorylation of WHRN and WDSUB1 Recruitment” (Advanced Science, 2023):
Substitutions are numbered along the chain they refer to. Like-named read-outs stand apart in the source and are kept apart here. No constants are given. Whether binding was seen depends on the method and setting. For some of these results: In cells and extracts the contact can be indirect. Some binding calls cover weakened binding; strength is not graded here. For some of these results: Tags and fused reporters may be left off the sequences shown. Each block holds one molecule with its values, some of them ahead of it.

Chains of the proteins cited; added tags and fusions are not shown. Residues count along the entry.
UniProt Q8VHN7, residues 4333-6298: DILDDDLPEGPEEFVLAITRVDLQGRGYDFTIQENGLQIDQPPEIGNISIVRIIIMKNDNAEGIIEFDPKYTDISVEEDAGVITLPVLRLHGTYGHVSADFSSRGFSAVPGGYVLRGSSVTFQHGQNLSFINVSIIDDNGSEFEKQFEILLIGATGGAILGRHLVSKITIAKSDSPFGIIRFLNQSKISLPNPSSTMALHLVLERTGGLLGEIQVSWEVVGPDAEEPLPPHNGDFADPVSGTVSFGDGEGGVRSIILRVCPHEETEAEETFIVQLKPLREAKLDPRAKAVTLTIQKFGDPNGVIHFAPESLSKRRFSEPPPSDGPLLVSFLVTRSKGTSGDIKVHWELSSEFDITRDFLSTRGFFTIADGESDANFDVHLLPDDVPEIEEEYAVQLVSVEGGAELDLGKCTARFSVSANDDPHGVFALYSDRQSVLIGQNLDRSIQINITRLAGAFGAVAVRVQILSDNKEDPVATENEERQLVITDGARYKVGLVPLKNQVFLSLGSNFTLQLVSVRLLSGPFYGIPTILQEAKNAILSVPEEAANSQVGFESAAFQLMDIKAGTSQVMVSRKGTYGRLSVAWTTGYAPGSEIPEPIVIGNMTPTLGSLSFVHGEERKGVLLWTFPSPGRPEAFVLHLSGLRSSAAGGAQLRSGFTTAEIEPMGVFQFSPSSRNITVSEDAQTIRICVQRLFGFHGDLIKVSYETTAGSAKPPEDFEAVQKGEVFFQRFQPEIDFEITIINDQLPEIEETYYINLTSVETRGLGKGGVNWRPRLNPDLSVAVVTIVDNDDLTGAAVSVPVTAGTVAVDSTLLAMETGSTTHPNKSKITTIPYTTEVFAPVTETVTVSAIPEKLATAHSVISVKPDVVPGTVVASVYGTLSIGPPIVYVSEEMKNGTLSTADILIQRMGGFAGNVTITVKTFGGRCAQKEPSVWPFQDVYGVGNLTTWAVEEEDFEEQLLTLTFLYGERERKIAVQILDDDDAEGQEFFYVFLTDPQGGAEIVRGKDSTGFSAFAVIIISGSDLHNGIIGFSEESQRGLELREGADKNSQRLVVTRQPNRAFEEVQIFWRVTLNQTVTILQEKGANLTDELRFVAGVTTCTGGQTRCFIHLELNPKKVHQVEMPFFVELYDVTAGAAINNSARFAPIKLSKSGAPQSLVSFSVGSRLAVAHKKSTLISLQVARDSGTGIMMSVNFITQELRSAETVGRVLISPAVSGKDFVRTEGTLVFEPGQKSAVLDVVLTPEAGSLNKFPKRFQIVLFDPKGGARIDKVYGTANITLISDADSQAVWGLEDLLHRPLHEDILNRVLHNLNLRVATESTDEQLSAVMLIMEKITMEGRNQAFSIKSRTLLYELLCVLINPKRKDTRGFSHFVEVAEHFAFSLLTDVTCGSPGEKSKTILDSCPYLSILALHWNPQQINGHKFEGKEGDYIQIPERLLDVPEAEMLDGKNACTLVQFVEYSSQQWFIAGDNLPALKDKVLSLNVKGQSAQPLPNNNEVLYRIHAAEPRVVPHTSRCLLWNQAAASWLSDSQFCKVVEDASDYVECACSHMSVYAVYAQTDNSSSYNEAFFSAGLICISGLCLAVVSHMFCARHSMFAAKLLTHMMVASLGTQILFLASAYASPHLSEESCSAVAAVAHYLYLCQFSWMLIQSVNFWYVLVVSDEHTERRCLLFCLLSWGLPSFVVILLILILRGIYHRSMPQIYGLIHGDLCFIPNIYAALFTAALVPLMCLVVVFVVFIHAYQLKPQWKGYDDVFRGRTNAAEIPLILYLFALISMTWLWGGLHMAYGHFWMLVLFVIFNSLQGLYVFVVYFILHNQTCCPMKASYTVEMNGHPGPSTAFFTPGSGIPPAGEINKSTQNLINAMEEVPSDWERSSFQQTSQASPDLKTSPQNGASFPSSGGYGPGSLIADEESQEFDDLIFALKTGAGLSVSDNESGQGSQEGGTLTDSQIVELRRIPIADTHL

Tests used:
[1] = target: T1, WHRN, wild type, of the PDZ-truncation co-IP (Figure 6b,c) (mouse) (UniProt Q80VW5); experiment: co-IP; cotransfected HEK293 cells, starved 12 h, lysed in 50 mM Tris-HCl pH 7.4, 150 mM NaCl, 1% Triton, 1% NP-40, 2 mM EDTA; anti-Flag M2 or anti-Myc antibody-conjugated agarose, 4 °C overnight; blots against the tags
T1 sequence: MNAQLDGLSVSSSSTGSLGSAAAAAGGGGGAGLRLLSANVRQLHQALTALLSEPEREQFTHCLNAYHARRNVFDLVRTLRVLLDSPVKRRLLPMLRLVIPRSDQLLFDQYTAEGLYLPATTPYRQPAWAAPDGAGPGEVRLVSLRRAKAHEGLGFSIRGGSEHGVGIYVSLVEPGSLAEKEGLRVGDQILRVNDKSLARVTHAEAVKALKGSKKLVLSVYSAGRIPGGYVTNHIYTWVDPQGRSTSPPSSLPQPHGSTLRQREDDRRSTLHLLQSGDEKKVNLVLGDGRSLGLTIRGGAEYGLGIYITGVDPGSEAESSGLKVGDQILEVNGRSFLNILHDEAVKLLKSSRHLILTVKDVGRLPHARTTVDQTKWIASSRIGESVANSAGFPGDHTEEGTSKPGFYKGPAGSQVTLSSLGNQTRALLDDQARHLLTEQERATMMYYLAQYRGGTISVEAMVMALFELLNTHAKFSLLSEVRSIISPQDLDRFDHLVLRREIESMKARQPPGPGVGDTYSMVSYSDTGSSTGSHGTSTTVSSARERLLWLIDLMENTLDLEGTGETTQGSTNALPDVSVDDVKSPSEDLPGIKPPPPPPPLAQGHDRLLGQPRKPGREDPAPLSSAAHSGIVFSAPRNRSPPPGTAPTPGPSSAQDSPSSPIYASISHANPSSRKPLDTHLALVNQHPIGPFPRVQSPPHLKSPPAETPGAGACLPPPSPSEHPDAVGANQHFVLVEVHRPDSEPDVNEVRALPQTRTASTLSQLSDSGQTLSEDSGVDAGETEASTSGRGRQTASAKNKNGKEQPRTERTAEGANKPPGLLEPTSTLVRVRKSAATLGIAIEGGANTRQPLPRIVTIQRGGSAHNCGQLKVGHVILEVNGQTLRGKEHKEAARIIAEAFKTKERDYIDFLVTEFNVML

[2] = target: T2, WHRN-Nluc L-Z1 (mouse) (UniProt Q80VW5); experiment: FRET or BRET; intermolecular FlAsH-BRET saturation in HEK293 cells: fixed amount of WHRN-Nluc, increasing ADGRV1-FlAsH or USH2A-FlAsH; 2.5 µM FlAsH-EDT2, 5 µM coelenterazine-h; net BRET Em530/Em485
T2 sequence: T1 sequence

[3] = target: T3, WHRN-Nluc L-Z3 (mouse) (UniProt Q80VW5); experiment: as above
T3 sequence: T1 sequence

[4] = target: T4, WHRN-Nluc Z1-L (mouse) (UniProt Q80VW5); experiment: as above
T4 sequence: T1 sequence

[5] = target: T5, WHRN-PDZ1 domain, purified (mouse) (UniProt Q80VW5); experiment: NMR titration; 15N-labelled PDZ1 or PDZ2 titrated with peptide (PDZ1/USH2Ap up to 1:4, PDZ2/ADGRV1p up to 1:5); 1H-15N HSQC, 293 K; 25 mM NaH2PO4, 100 mM NaCl, 2 mM EDTA, pH 6.8; both purified
T5 sequence: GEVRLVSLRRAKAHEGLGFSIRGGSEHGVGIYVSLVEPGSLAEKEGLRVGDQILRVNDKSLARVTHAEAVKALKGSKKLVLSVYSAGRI

[6] = target: T6, WHRN, endogenous in mouse cochlea (mouse (endogenous in cochlea)) (UniProt Q80VW5); experiment: co-IP; endogenous proteins in lysates of cochlea from WT or Y6236fsX1 mutant mice; precipitated with WHRN antibody, IgG as control, WDSUB1 blotted; ≈2.5-fold more WDSUB1 with WHRN in Y6236fsX1 than in WT lysate
T6 sequence: T1 sequence

[7] = target: T7, Flag-WHRN (wild type) (mouse) (UniProt Q80VW5); experiment: co-IP; cotransfected HEK293 cells, starved 12 h, lysed in 50 mM Tris-HCl pH 7.4, 150 mM NaCl, 1% Triton, 1% NP-40, 2 mM EDTA; anti-Flag M2 or anti-Myc antibody-conjugated agarose, 4 °C overnight; blots against the tags
T7 sequence: T1 sequence

[8] = target: T8, Flag-WHRN S246E (phospho-mimic mutant) (mouse) (UniProt Q80VW5); experiment: as above
T8 sequence: T1 sequence with S246E

[9] = target: T9, Flag-WHRN S156E (phospho-mimic mutant) (mouse) (UniProt Q80VW5); experiment: as above
T9 sequence: T1 sequence with S156E

[10] = target: T1, WHRN, wild type, of the PDZ-truncation co-IP (Figure 6b,c) (mouse); experiment: as above; remark: listed apart in the source

- binding [1]: binds
Molecule: ADGRV1 of the PDZ-truncation co-IP (Figure 6b,c) (from UniProt Q8VHN7 4333-6298) (receptor)

- binding [2]: binds
- binding [3]: binds
- binding [4]: binds
Molecule: ADGRV1-ICL2-FlAsH (from UniProt Q8VHN7 4333-6298) (receptor)

- binding [5]: binds
B1: USH2Ap, 10-residue C-terminal tail peptide of USH2A harboring the PDZ-binding motif (peptide, UniProt Q2QI47 5184-5193, looked up)
peptide: EHTAFTDTHL
notes: also called USH2A C-terminal peptide; source: synthetic peptide

- binding [6]: binds
B2: WDSUB1, endogenous in mouse cochlea (enzyme, UniProt Q9D0I6 1-474)
chain: MVRLIHTLADHGDDVSCCAFSAALLATCSLDKTIRLYSLSDFAELPYSPLKFHTYAVHCCCFSPSGHVLASCSTDGTTVLWSSHSGHTLTVLEQPGGSPVRVCCFSPDSAYLASGAADGSIALWNAQTYKLYRCGSVKDSSLVACAFSPDGGLFVTGSSGGDLTVWDDRMRCLHSEKAHDLGITCCSFSSQPLSGGEGLQSYQLASCGQDCEIKLWAVTITRVLGFELKYKSTLSGHCAPVLACAFSHDGKMLASGSVDKSVIIHGIGPQSVLHTLTQHTRYVTTCAFAPNTLLLATGSMDKTVNIWQFDLETPCQGSMNDPLKHFTEEWSEEDVSVWLRAQGLEDLVGIFRANNIDGKELLHLTKESLAGDLKIESLGLRSKVLRSIEELRAKMDSLSSGIPDEFICPITRELMKDPVIASDGYSYEREAMESWIHKKKRTSPMTNLALPSLVLTPNRTLKMAINRWLETHEK

- binding [7]: binds
- binding [8]: binds
- binding [9]: binds
B3: GFP-WDSUB1 (WD repeat, SAM, and U-box domain-containing protein 1) (enzyme, UniProt Q9D0I6 1-474)
chain: B2 chain

- binding [10]: binds
B4: USH2A of the PDZ-truncation co-IP (Figure 6b,c) (domain or fragment, UniProt Q2QI47 4819-5193)
chain: PPSGLSPPQVQTLGSRMASVHWTPPLLPNGVIHSYELQLQRACPPDSAPRCPPSHTERKYWGPGHRASLAGLQPNTAYGVQVVAYNEAGSTASGWTNFSTKKEMPQYQALFSVDSNASMVWVDWSGTFLLNGHLKEYVVTDGGRRVYSGLDTTLYIPRMVDKIFFFQVTCTTDIGSVKTPLVQYDAATGSGLVLTTPGEKKGAGTKSTEFYSELWFIMVMAVVGLILLAIFLSLILQRKIHKEPCIRERPPLVPLQKRMTPLSVYPPGETHVGLADTRLPRSGTPMSIRSSQSVSVLRIPSQSQLSHAYSQSSLHRSVSQLMDMADKKVVTEDSLWETIMGHSSGLYVDEEELMNAIKGFSSVTKEHTAFTDTHL

- binding [7]: binds
- binding [8]: binds
- binding [9]: binds
B5: Myc-USH2A (usherin, aa 4819-5193) (domain or fragment, UniProt Q2QI47 4819-5193)
chain: B4 chain
